Values joined by “and” are separate entries in the source; they are usually repeats but may differ in a detail not shown here. Equal values may be shown once. This is one part of the list. Single wells; the ratio to wells without odorant was worked out here, and repeats agree poorly.

The first experiment concerns OR6J1 R121H/T124A/R226H/P250S/L274S/V279L clone 1714. The experiment is described as follows: odorant receptor activation (CRE luciferase / Renilla) (fold of no-odor wells); higher = more activation. The following applies: 100 µM.
As for `CCCCCCCCC=O` [nonyl aldehyde], the odorant receptor activation was found to be 0.707.
For `CCCCCC(=O)O` [caproic acid], the odorant receptor activation is 0.704.
Compound `CC1=CCC(C(C)(C)O)CC1` (stereo not drawn) [terpineol] gave an odorant receptor activation of 1.24.
Turning to `CCCCCCCCOC(C)=O` [octyl acetate], the odorant receptor activation came to 0.953.
The compound `O=C1CCCCCCCCCCCCCCO1` [pentadecalactone] gave an odorant receptor activation of 0.956.
`COc1cc(C)ccc1O` [2-methoxy-4-methylphenol]: the odorant receptor activation amounted to 0.828.
The compound `CCCCCCCOC(C)=O` [heptyl acetate] came in with an odorant receptor activation of 0.838.
Compound `CC(C)C=O` [isobutyraldehyde] had an odorant receptor activation of 1.85.
As to `C=CC(C)(O)CCC=C(C)C` (stereo not drawn) [linalool], the odorant receptor activation worked out at 1.96.
As to `O=CCc1ccccc1` [phenyl acetaldehyde], the odorant receptor activation worked out at 0.926.
In turn, `CCCCCCCCCCC=O` [undecanal] showed an odorant receptor activation of 1.18.
The compound `CC(C)C(=O)O` [isobutyric acid] yielded an odorant receptor activation of 1.85.
As for `CC(C)CCC(=O)O` [4-methylvaleric acid], the odorant receptor activation amounted to 0.789.
In turn, `CCCCCOC(C)=O` [n-amyl acetate] gave an odorant receptor activation of 1.05.
Compound `CC(=O)OC(C)(C)C1CC=C(C)CC1` (stereo not drawn) [terpinyl acetate] gave an odorant receptor activation of 1.28.
On to `CC=Cc1ccc(O)c(OC)c1` [isoeugenol], for which the odorant receptor activation was determined as 3.26.
With `CCCC(=O)O` [butyric acid], the odorant receptor activation stood at 0.962.
Compound `C=CCSCC=C` [diallyl sulfide] yielded an odorant receptor activation of 0.697.
In turn, `CCCCCCC=O` [heptaldehyde] registered an odorant receptor activation of 0.964.
Regarding `CCCCCCCCCC=O` [decyl aldehyde], the odorant receptor activation was found to be 0.929.

The test system of the next experiment is OR6K2 clone 1041. The experiment is described as above. The following applies: 100 µM.
As to `CC(C)(C)c1ccc(CCC=O)cc1` [bourgeonal], the odorant receptor activation worked out at 0.967.
In the case of `CC(=O)c1ccccc1` [acetophenone], the odorant receptor activation is 1.22.
In the case of `CCCCCCCCC=O` [nonyl aldehyde], the odorant receptor activation came to 0.981.
`CCCCCC(=O)O` [caproic acid] displayed an odorant receptor activation of 1.18.
`CC1=CCC(C(C)(C)O)CC1` (stereo not drawn) [terpineol] showed an odorant receptor activation of 1.26.
As to `CCCCCCCCOC(C)=O` [octyl acetate], the odorant receptor activation stood at 1.04.
On to `COC(=O)c1ccccc1` [methyl benzoate], for which the odorant receptor activation stood at 1.57.
Same read-out and setting: under `O=C1CCCCCCCCCCCCCCO1` [pentadecalactone] stands 1.08; under `COc1cc(C)ccc1O` [2-methoxy-4-methylphenol], 1.84.
Compound `CC12C=CCC1C1CCC3CC(=O)CCC3(C)C1CC2` (stereo not drawn) [androstenone] showed an odorant receptor activation of 1.68.
Take `CCCCCCCOC(C)=O` [heptyl acetate]: the odorant receptor activation worked out at 0.947.
Same read-out and setting: under `CC1=NC(C)SC1C` (stereo not drawn) stands 0.88; under `CC(C)C=O` [isobutyraldehyde], 1.07; under `C=CC(C)(O)CCC=C(C)C` (stereo not drawn) [linalool], 1.12.
Compound `O=CCc1ccccc1` [phenyl acetaldehyde] came in with an odorant receptor activation of 1.37.
Consider `CCCCCCCCCCC=O` [undecanal], for which the odorant receptor activation is 1.09.
The same measure, in the same setting: to `CC1COCc2cc3c(cc21)C(C)(C)C(C)C3(C)C` (stereo not drawn) [galaxolide] belongs 4.15.
The compound `CCCCCC(C)=O` [2-heptanone] had an odorant receptor activation of 0.58.
In turn, `CC(C)C(=O)O` [isobutyric acid] showed an odorant receptor activation of 0.849.
On to `O=C1CCCCC1` [Cyclohexanone], for which the odorant receptor activation was found to be 0.871.
`CC(C)CCC(=O)O` [4-methylvaleric acid]: the odorant receptor activation is 1.69.
As to `CCCCCOC(C)=O` [n-amyl acetate], the odorant receptor activation was 1.27.
As for `CC12C=CCC1C1CCC3=CC(=O)CCC3(C)C1CC2` (stereo not drawn) [androstadienone], the odorant receptor activation worked out at 3.33.
Same read-out and setting: to `CC(=O)OC(C)(C)C1CC=C(C)CC1` (stereo not drawn) [terpinyl acetate] belongs 1.54; to `CC=Cc1ccc(O)c(OC)c1` [isoeugenol], 1.5.
On the same count and under the same terms, to `CCCC(=O)O` [butyric acid] belongs 1.29.
`C=CCSCC=C` [diallyl sulfide] showed an odorant receptor activation of 1.2.
Turning to `CCCCCCC=O` [heptaldehyde], the odorant receptor activation is 1.07 and 2.38.
`CCCCCCCCCC=O` [decyl aldehyde] showed an odorant receptor activation of 1.57.

For the next experiment, the system named is OR6K3 P228S/P248L clone 1045. The experiment is described as above. Particulars: 100 µM.
On to `CC(C)(C)c1ccc(CCC=O)cc1` [bourgeonal], for which the odorant receptor activation turned out to be 0.865.
Compound `CC(=O)c1ccccc1` [acetophenone] displayed an odorant receptor activation of 1.06.
`CCCCCCCCC=O` [nonyl aldehyde] gave an odorant receptor activation of 1.02.
On the same count and under the same terms, under `CCCCCC(=O)O` [caproic acid] stands 1.12.
`CC1=CCC(C(C)(C)O)CC1` (stereo not drawn) [terpineol] yielded an odorant receptor activation of 1.32.
Compound `CCCCCCCCOC(C)=O` [octyl acetate] yielded an odorant receptor activation of 1.06.
Turning to `COC(=O)c1ccccc1` [methyl benzoate], the odorant receptor activation was found to be 1.07.
Turning to `O=C1CCCCCCCCCCCCCCO1` [pentadecalactone], the odorant receptor activation worked out at 1.31.
`COc1cc(C)ccc1O` [2-methoxy-4-methylphenol] registered an odorant receptor activation of 1.76.
In turn, `CC12C=CCC1C1CCC3CC(=O)CCC3(C)C1CC2` (stereo not drawn) [androstenone] displayed an odorant receptor activation of 0.986.
Same read-out and setting: to `CCCCCCCOC(C)=O` [heptyl acetate] belongs 1.08; to `CC1=NC(C)SC1C` (stereo not drawn), 0.974; to `CC(C)C=O` [isobutyraldehyde], 1.04.
Turning to `C=CC(C)(O)CCC=C(C)C` (stereo not drawn) [linalool], the odorant receptor activation came out at 1.56.
Same read-out and setting: to `O=CCc1ccccc1` [phenyl acetaldehyde] belongs 1.56; to `CCCCCCCCCCC=O` [undecanal], 1.23; to `CC1COCc2cc3c(cc21)C(C)(C)C(C)C3(C)C` (stereo not drawn) [galaxolide], 5.81.
The same measure, in the same setting: under `CCCCCC(C)=O` [2-heptanone] stands 0.492; under `CC(C)C(=O)O` [isobutyric acid], 1.67.
Consider `O=C1CCCCC1` [Cyclohexanone], for which the odorant receptor activation was 0.507.
`CC(C)CCC(=O)O` [4-methylvaleric acid] displayed an odorant receptor activation of 1.21.
Same read-out and setting: to `CCCCCOC(C)=O` [n-amyl acetate] belongs 1.1; to `CC12C=CCC1C1CCC3=CC(=O)CCC3(C)C1CC2` (stereo not drawn) [androstadienone], 1.34.
For the compound `CC(=O)OC(C)(C)C1CC=C(C)CC1` (stereo not drawn) [terpinyl acetate], the odorant receptor activation was determined as 1.53.
For the compound `CC=Cc1ccc(O)c(OC)c1` [isoeugenol], the odorant receptor activation is 1.09.
In the case of `CCCC(=O)O` [butyric acid], the odorant receptor activation was 1.17.
In turn, `C=CCSCC=C` [diallyl sulfide] displayed an odorant receptor activation of 1.02.
Consider `CCCCCCC=O` [heptaldehyde], for which the odorant receptor activation was 1.04 and 1.
As to `CCCCCCCCCC=O` [decyl aldehyde], the odorant receptor activation worked out at 1.17.

The values are drawn from the odorant receptor screen of Mainland et al. (2015).
